Read-outs that look alike come from different tables or passages of the source. These are yes or no findings as the source states them, for the method shown. Binding seen in cells or lysates may run through a third protein. A yes stands for co-enrichment or nearness to the bait. Other partners may have been found. For some of these results: Sequences can lack the tags named with a protein. Values belong to the molecule of their own block, whether it stands above or below them.
How the values were obtained:
Assay in all cases: affinity purification with mass spectrometry; GFP-tagged bait expressed in multiciliated cells of ~500-550 Xenopus animal cap explants cultured to stage 23; immunoprecipitation with GFP-Trap Agarose; parallel un-fused GFP control used to subtract background; enrichment by Z-test, fold-change and …
[1] = target: T1, GFP-Dnai2 (Xenopus) (UniProt Q4QR00)
T1 sequence: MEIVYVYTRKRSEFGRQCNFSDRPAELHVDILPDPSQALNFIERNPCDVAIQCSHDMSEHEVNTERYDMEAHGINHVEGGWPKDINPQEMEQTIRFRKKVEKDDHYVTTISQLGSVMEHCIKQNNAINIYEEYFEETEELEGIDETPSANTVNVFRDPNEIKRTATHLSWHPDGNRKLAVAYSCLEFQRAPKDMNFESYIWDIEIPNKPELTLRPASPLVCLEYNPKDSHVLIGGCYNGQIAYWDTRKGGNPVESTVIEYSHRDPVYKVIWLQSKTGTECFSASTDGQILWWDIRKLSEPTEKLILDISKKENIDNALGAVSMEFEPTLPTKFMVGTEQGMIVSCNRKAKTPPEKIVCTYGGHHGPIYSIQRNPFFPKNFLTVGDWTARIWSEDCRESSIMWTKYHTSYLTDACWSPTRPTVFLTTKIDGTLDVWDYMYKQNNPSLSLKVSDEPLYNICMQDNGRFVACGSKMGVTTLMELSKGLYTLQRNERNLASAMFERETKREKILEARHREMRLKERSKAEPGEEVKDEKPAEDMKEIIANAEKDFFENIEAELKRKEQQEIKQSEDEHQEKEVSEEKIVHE

Amino acid sequences for entries named in this document (tags omitted). A change or cut given only in a name is not applied to a line headed by its entry.
UniProt Q6GPB9: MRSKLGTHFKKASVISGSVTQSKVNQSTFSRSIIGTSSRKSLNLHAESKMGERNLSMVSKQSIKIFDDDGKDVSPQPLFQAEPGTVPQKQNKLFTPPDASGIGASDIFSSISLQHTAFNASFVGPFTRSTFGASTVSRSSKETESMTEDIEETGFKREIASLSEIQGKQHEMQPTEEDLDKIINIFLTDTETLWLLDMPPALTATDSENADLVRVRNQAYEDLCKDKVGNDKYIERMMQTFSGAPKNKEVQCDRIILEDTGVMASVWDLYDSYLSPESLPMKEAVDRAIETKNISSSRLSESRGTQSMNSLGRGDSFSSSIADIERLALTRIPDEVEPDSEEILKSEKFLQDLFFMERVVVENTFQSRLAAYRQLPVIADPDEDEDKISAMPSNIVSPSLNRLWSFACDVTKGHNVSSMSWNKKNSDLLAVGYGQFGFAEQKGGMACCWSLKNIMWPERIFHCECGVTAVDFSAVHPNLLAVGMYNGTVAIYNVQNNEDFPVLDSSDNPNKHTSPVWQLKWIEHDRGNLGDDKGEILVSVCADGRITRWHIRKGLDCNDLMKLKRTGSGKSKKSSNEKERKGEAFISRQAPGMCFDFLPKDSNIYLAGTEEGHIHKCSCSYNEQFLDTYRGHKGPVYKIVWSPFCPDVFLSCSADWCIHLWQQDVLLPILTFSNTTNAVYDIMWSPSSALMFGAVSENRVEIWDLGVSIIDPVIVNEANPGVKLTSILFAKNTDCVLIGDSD
UniProt A0A1L8HX76: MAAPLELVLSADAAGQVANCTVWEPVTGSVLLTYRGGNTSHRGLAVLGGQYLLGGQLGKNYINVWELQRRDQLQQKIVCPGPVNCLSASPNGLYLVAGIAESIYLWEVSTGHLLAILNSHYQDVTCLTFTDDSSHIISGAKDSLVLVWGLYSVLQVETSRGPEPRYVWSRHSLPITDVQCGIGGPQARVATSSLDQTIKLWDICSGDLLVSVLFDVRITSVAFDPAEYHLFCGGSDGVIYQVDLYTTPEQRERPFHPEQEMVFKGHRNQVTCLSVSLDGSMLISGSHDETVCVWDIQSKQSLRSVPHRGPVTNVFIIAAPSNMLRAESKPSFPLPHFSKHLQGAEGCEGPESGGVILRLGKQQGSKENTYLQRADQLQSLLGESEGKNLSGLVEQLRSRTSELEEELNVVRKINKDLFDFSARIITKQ
UniProt Q9DE27: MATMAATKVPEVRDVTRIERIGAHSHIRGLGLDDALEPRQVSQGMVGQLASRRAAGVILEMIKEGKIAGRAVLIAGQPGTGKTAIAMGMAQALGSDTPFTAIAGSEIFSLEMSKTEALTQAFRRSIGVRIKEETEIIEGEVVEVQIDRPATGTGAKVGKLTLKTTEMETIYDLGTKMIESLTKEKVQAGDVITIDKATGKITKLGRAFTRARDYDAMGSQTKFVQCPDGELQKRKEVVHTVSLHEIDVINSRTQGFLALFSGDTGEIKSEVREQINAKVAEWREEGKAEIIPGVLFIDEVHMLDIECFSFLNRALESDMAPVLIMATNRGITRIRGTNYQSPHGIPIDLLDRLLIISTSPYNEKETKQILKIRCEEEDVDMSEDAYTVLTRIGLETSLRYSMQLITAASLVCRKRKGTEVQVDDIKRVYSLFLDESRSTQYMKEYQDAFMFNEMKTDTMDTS
UniProt Q9DE26: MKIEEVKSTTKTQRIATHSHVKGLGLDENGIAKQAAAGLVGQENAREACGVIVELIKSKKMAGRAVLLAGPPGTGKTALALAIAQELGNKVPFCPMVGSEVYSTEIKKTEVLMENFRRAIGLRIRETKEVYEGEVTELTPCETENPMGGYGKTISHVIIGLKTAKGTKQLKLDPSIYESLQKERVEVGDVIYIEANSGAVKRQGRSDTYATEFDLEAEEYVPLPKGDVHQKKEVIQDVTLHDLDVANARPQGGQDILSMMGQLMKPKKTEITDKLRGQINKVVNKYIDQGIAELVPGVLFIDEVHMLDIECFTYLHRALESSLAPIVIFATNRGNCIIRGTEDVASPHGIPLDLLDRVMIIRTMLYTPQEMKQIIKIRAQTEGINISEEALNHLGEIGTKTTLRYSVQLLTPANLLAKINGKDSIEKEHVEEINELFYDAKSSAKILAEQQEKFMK
UniProt A0A1L8EYB2: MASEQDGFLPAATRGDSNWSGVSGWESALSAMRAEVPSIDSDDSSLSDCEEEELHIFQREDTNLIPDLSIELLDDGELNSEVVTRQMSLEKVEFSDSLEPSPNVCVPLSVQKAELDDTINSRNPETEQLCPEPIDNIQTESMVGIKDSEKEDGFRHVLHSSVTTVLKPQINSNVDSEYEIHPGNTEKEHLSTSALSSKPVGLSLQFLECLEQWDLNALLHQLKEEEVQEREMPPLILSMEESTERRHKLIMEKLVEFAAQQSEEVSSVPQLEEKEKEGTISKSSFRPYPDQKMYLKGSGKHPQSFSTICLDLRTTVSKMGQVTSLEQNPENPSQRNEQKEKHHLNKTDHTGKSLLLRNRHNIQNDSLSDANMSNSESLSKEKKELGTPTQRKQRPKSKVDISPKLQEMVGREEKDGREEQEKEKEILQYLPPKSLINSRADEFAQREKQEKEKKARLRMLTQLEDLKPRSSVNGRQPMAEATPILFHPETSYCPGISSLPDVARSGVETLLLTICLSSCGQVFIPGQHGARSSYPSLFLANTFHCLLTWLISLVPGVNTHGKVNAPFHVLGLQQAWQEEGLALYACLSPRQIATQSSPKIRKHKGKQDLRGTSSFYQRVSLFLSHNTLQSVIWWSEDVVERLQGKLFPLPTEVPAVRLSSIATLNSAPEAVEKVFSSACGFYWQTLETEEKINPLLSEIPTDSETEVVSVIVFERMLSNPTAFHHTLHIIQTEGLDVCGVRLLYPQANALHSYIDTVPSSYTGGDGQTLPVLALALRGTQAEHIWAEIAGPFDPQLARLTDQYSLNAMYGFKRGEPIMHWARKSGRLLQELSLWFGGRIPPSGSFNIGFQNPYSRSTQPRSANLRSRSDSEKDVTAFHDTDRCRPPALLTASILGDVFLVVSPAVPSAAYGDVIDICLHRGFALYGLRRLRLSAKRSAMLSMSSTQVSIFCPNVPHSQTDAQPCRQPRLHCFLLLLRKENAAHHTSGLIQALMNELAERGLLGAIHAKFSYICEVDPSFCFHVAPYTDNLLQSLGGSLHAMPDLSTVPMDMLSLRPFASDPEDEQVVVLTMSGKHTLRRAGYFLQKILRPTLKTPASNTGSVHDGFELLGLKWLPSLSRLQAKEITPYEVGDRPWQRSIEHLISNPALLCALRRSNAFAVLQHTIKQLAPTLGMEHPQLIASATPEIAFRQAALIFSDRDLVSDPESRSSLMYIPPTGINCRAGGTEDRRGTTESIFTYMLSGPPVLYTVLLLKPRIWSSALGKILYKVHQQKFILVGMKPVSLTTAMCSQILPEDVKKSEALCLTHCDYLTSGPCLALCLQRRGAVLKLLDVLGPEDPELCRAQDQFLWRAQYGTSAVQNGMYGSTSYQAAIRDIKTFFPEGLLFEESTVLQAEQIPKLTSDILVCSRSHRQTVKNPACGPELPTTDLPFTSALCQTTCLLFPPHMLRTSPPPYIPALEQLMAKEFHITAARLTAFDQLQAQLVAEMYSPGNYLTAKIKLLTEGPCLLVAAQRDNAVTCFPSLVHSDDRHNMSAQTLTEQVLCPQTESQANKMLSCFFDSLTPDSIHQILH

[2] = target: GFP-Wdr78 (Xenopus) (UniProt Q6GPB9)
[3] = target: T1, GFP-Dnai2 (Xenopus); remark: listed apart in the source

binding [1]: binds
Molecule: Dnah9

binding [1]: binds
Molecule: Dnai1

binding [1]: binds
Molecule: Tctex1d1

binding [2]: binds
Molecule: Wdr18 (from UniProt A0A1L8HX76 1-428)

The next lines start with the molecule.

Molecule: Spag1
binding [1]: binds weakly

Molecule: Ruvbl2 (from UniProt Q9DE27 1-462)
binding [2]: binds weakly | binding [1]: binds weakly

Molecule: Dnah11
binding [1]: binds

Molecule: Dnaaf1
binding [1]: binds weakly

Molecule: Ruvbl1 (from UniProt Q9DE26 1-456)
binding [2]: binds weakly | binding [1]: binds weakly

Molecule: C16orf71/Daap1 (from UniProt A0A1L8EYB2)
binding [1]: binds

B1: Nme9 (protein, UniProt Q6IRC5 1-625)
chain: MAGKKRESSLQIALSNQEQWEEALSTKGLQVVDVYQAWCGPCKPTVSLFRKIKNELGDDLLHFAVAESDTIDSLVKYRGKCEPTFLFLAGGELVAVVRGANGPLLQKTIIEQLAAEKKVLNQGSERHVIKDEVLLEEEDEIAPVQAQTEDEELVPSGKSYTVAIIKPDAVAHGKTDEIIMKIQESGFEILANEERTMTESEAREFYQHRAGEEKFQELIQFMSSGPCHILIISKSEEDEDVIPAWREFIGPTDVEIAKKEKPESLRAQYGTEVLYNAVHGSNDREQASRELAFFFPNFKISNESLKELTSVKPERTLALIRPEILKERKDEILQSIKDAGFSIAMQKEVMLTEHQVQEFYKEHINEDYYPALLKQMTSGPVLALALVKDNAVGHWRNMLGPASLSQALSEAPDSLRAQFAPSDSETNQLHGSSTTEEAKKEINFFFPVEHTLATIKPDALEEHRDEILEQIQGAGFTISQIKEANLNREMAEEFYKEHKGKPFFEQLVNYMCRGPCLMMILSKENAVHEWRSLMGPTDPAEAQKVLPDSLRGKFAKSILQNAVHGSSNSDHAMEKIKFIFGDIDLDRIVHESFGETPETSASDISRNAAAQGDDPEQDESKEMEE
binding [3]: binds

Reference: paper PMC7785291
